Where “and” joins values, the source holds several entries; their conditions need not be identical. Equal values may be shown once. In all, about 300,000 compounds went through this assay and about 5,400 (1.8%) were called active. The inconclusive results got no clear call from the source; some entries with a clear call stand among them for comparison. The call rests on the fitted dose curve; tested in HEK293 cells. A potency beside an inconclusive call is a rough fit, not a confirmed value.
Experiment: qHTS for inhibitors of binding or entry into cells for Marburg Virus
Details: Marburg virus pseudotyped entry inhibition, cell reporter; series mostly up to 37.8 µM
Potency means the concentration at half of the fitted maximal effect.

Question: With `CC(=O)Nc1c(C(=O)Nc2ccccc2F)oc2ccccc12` as the compound, how does the Potency read?
Answer: inactive

Question: With `O=C(Nc1sc2c(c1C(=O)NC1CC1)CCCCCC2)c1ccco1` as the compound, how does the Potency read?
Answer: inactive

Question: With `CC(=O)Nc1ccc(C2=NN(C)C(=NCc3ccccc3)SC2)cc1` as the compound, how does the Potency read?
Answer: inconclusive: 35.5 µM [inhibitor, single point]

Question: With `O=C(NCCc1ccc(Cl)cc1)c1ccc(CS(=O)Cc2ccc(Cl)cc2)o1` (stereo unspecified) as the compound, how does the Potency read?
Answer: inconclusive: 35.5 µM [inhibitor, partial curve, poor fit]

Question: Which Potency does the source give for `CNc1ccccc1C(=O)OCC(=O)c1ccc(F)cc1` here?
Answer: inconclusive: 3.55 µM [activator, full curve, poor fit]

Question: Which Potency does the source give for `CN(C)c1ccc(CNC(=O)CCc2ccc(S(=O)(=O)N3CCCCCC3)cc2)cc1` here?
Answer: inconclusive: 35.5 µM [inhibitor, single point]

Question: With `Cc1c(C(=O)N2CCC2)oc2ccc(Cl)cc12` as the compound, how does the Potency read?
Answer: inactive

Question: Which Potency does the source give for `Clc1ccc(COc2cccc(CNCc3ccncc3)c2)cc1` here?
Answer: inactive

Question: For `CC(C)(C)NC(=O)CCSc1nnc(-c2ccco2)o1`, which Potency is on record?
Answer: inactive

Question: For `COc1cccc(NC(=O)c2oc3ccc(S(=O)(=O)N4CCOCC4)cc3c2C)c1`, which Potency is on record?
Answer: inconclusive: 35.5 µM [activator, single point]

Question: For `O=C(CN1C(=O)NC2(CCCC2)C1=O)N1CCN(c2ccccc2O)CC1`, which Potency is on record?
Answer: inactive

Question: For `CCc1ccccc1N1C(=O)CC(N2CCc3ccccc32)C1=O` (stereo unspecified), which Potency is on record?
Answer: inconclusive: 5.62 µM [activator, single point]

Question: With `COc1ccccc1NS(=O)(=O)c1cc(NC(=O)Nc2ccccc2)ccc1N1CCCCC1` as the compound, how does the Potency read?
Answer: inconclusive: 29.1 µM [inhibitor, single point]

Question: With `CCn1ccnc1CN(C)Cc1cn(-c2cc(C)ccc2C)nc1-c1ccccc1` as the compound, how does the Potency read?
Answer: inconclusive: 35.5 µM [inhibitor, single point]

Question: With `COc1ccc(C)cc1S(=O)(=O)N1CCCC(C(=O)N2CCN(c3ccccc3F)CC2)C1` (stereo unspecified) as the compound, how does the Potency read?
Answer: inconclusive: 35.5 µM [inhibitor, single point]

Question: With `O=[N+]([O-])c1ccc(C2=NN(CCO)C(=Nc3ccc(OC(F)(F)F)cc3)SC2)cc1` as the compound, how does the Potency read?
Answer: inconclusive: 7.08 µM [inhibitor, full curve, poor fit]

Question: Which Potency does the source give for `COc1ccc(S(=O)(=O)NCc2ccccn2)cc1NC(=O)c1ccccc1` here?
Answer: inconclusive: 3.16 µM [inhibitor, full curve]

Question: For `Nc1cc2[nH]c(=O)c3ccccc3c2cc1Br`, which Potency is on record?
Answer: inconclusive: 1 µM [activator, full curve, poor fit]

Question: Which Potency does the source give for `Cc1cccc(N=C2Sc3nc4c(C)c(C)ccc4cc3CN2CCN2CCOCC2)c1` here?
Answer: active: 16.4 µM

Question: For `CCN(c1ccccc1)S(=O)(=O)c1c(C)noc1C`, which Potency is on record?
Answer: inactive

Question: Which Potency does the source give for `CCOc1ccc(NS(=O)(=O)c2cc(Cl)ccc2OC)cc1` here?
Answer: inconclusive: 11.2 µM [inhibitor, partial curve, poor fit]

Question: For `O=C(NCC(c1cccs1)N1CCOCC1)c1cc(-c2ccc(F)cc2)nc2ccccc12` (stereo unspecified), which Potency is on record?
Answer: inconclusive: 35.5 µM [inhibitor, single point]

Question: With `Cc1cc(C(=O)CSCCCn2c(=O)[nH]c3ccccc32)c(C)n1C` as the compound, how does the Potency read?
Answer: inconclusive: 0.631 µM [activator, full curve, poor fit]

Question: Which Potency does the source give for `CC(C)N(C(=O)COC(=O)c1cc(Cl)cc(Cl)c1N)C(C)C` here?
Answer: inconclusive: 0.461 µM [inhibitor, partial curve]

Question: For `O=[N+]([O-])c1cccc(C2NCC(c3ccccc3Cl)c3c2[nH]c2ccccc32)c1` (stereo unspecified), which Potency is on record?
Answer: inconclusive: 0.316 µM [activator, partial curve, poor fit]

Question: Which Potency does the source give for `CC(=O)c1c(C)[nH]c(C(=O)NCc2ccc(F)cc2)c1C` here?
Answer: inconclusive: 2.82 µM [activator, partial curve, poor fit]

Question: For `CC(NC(=O)C(Cc1ccccc1)=NO)c1ccccc1` (stereo unspecified), which Potency is on record?
Answer: inconclusive: 0.631 µM [activator, single point]

Question: Which Potency does the source give for `O=S(=O)(NC1CCCC1)c1ccc(S(=O)(=O)NC2CCCC2)cc1` here?
Answer: inconclusive: 5.8 µM [inhibitor, full curve]

Question: With `CCOc1ncccc1C(=O)Nc1nc(SC)ns1` as the compound, how does the Potency read?
Answer: inconclusive: 17.8 µM [activator, partial curve, poor fit]

Question: Which Potency does the source give for `COc1ccc(C(CNC(=O)CNC(=O)c2cccc(C)c2)N2CCCCC2)cc1` (stereo unspecified) here?
Answer: inactive

Question: With `CCC(C(=O)NC1CCCC1)N(C(=O)c1snc(C(N)=O)c1N)c1ccc(OC)c(OC)c1` (stereo unspecified) as the compound, how does the Potency read?
Answer: inconclusive: 39.8 µM [inhibitor, partial curve, poor fit]

Question: For `CC(C)CCn1c(N2CCN(Cc3ccccc3)CC2)nc2c1c(=O)[nH]c(=O)n2C`, which Potency is on record?
Answer: inactive

Question: Which Potency does the source give for `CNC(=O)c1ccc(-c2ccc(F)cc2)s1` here?
Answer: inconclusive: 6.31 µM [activator, full curve, poor fit]

Question: For `COc1ccc([C@H]2[C@H](C(=O)OC(C)(C)C)N3N=Cc4ccccc4C3C23C(=O)c2ccccc2C3=O)c(OC)c1` (stereo partly specified), which Potency is on record?
Answer: inconclusive: 22.4 µM [inhibitor, single point]

Question: For `S=C(Nc1ccc(Cl)cc1)NC1CC2CCCC(C1)N2C1CCCC1` (stereo unspecified), which Potency is on record?
Answer: inconclusive: 10.3 µM [inhibitor, partial curve, poor fit]

Question: Which Potency does the source give for `COc1ccc(O)c(CN2CC3CCC(CC3)C2)c1` here?
Answer: inactive

Question: Which Potency does the source give for `Cc1ccccc1NC(=O)CSc1nnc(-c2cccc(Cl)c2)o1` here?
Answer: inconclusive: 3.55 µM [activator, partial curve]

Question: With `COc1ccccc1-c1ccnc2c(-c3ccc(Br)cc3)c(C)nn12` as the compound, how does the Potency read?
Answer: inconclusive: 31.6 µM [activator, single point]

Question: For `CC(C)CC1C(=O)N(Cc2cn(CCC3OCCCO3)nn2)CCS(=O)(=O)N1Cc1ccc(-c2ccc(Cl)c(Cl)c2)cc1` (stereo unspecified), which Potency is on record?
Answer: inconclusive: 6.28 µM [inhibitor, partial curve, poor fit]

Question: With `Cc1cc(C)nc(-n2nc(C)c(Br)c2Nc2ccc(Br)cc2)n1` as the compound, how does the Potency read?
Answer: inactive

Question: For `CSc1ccc(NC(=O)NCCN2CCc3ccccc3C2)cc1`, which Potency is on record?
Answer: inconclusive: 29.1 µM [inhibitor, single point]

Question: Which Potency does the source give for `COc1cc(-c2nc3cnccn3c2Nc2ccc(C(C)C)cc2)ccc1O` here?
Answer: inconclusive: 29.1 µM [inhibitor, single point] and inconclusive: 35.5 µM [inhibitor, single point]

Question: For `COc1ccc(CCNC(=O)c2c(C)nn(-c3ccccc3)c2Cl)cc1OC`, which Potency is on record?
Answer: inactive

Question: For `O=C(c1ccccc1F)N(Cc1cccnc1)Cc1cc2cc3c(cc2[nH]c1=O)OCCO3`, which Potency is on record?
Answer: inconclusive: 39.8 µM [inhibitor, partial curve, poor fit]

Question: For `COc1ccc(NS(=O)(=O)c2ccc3c(c2)n(C)c(=O)c(=O)n3C)cc1Cl`, which Potency is on record?
Answer: inconclusive: 35.5 µM [inhibitor, single point]

Question: With `CSC1=NSC2=NC(=O)/C(=C/c3coc4ccccc4c3=O)C(=N)N12` as the compound, how does the Potency read?
Answer: inconclusive: 2.82 µM [activator, partial curve, poor fit]

Question: Which Potency does the source give for `Nc1ccccc1C(=O)NNC(=O)C(=O)/C=C(\O)c1ccccc1` here?
Answer: inactive

Question: Which Potency does the source give for `COc1cc(C(=O)NNC(=O)C2CCCC2)cc(OC)c1OC` here?
Answer: inactive

Question: Which Potency does the source give for `CCCc1cc2c(=O)c(-c3ccccn3)c(C)oc2cc1O` here?
Answer: inactive

Question: With `Cc1cc(NC(=O)c2cccc(S(=O)(=O)N3CCCC3)c2)no1` as the compound, how does the Potency read?
Answer: inactive

Question: For `CCOc1ccc(OCC)c(NC(=O)CSc2nc3c(c(=O)n(C)c(=O)n3C)n2C(C)C)c1`, which Potency is on record?
Answer: inconclusive: 25.9 µM [inhibitor, partial curve]

Question: For `O=C(CN1CCCC1c1ccc2c(c1)OCCO2)NC(=O)Nc1ccccc1F` (stereo unspecified), which Potency is on record?
Answer: inactive

Question: Which Potency does the source give for `Cn1cc(CN2CCCCC2c2ccccn2)c(-c2ccc3c(c2)OCCO3)n1` (stereo unspecified) here?
Answer: inconclusive: 25.1 µM [activator, single point]

Question: With `CN1CCc2cc(NC(=O)Nc3cccnc3)ccc21` as the compound, how does the Potency read?
Answer: inconclusive: 14.6 µM [activator, partial curve, poor fit]

Question: Which Potency does the source give for `NC(=O)NC(=O)COC(=O)c1ccc2noc(-c3ccccc3)c2c1` here?
Answer: inactive

Question: With `Cc1ccccc1NC1=C(Cl)C(=O)OC1OC(=O)c1ccccc1C` (stereo unspecified) as the compound, how does the Potency read?
Answer: inconclusive: 14.1 µM [inhibitor, single point]

Question: With `COc1cc(Br)cc(/C=N/NC(=O)Cc2ccc(C(F)(F)F)cc2[N+](=O)[O-])c1O` as the compound, how does the Potency read?
Answer: inconclusive: 2.51 µM [inhibitor, full curve, poor fit]

Question: Which Potency does the source give for `CCOc1ccc(C(C(=O)NCC2CCCO2)N(Cc2cccnc2)C(=O)c2snc(C(N)=O)c2N)cc1` (stereo unspecified) here?
Answer: inactive

Question: Which Potency does the source give for `O=C(NCCCNC(=O)c1ccco1)c1ccc(F)cc1` here?
Answer: inconclusive: 3.55 µM [inhibitor, single point]

Question: With `Cc1ccc2nc(Cc3ccc(N)cc3)[nH]c2c1` as the compound, how does the Potency read?
Answer: inconclusive: 18.3 µM [activator, partial curve, poor fit]

Question: For `O=C(NCCC(=O)N1CCN(S(=O)(=O)c2ccccc2F)CC1)Nc1ccccc1`, which Potency is on record?
Answer: inconclusive: 0.316 µM [activator, partial curve, poor fit]

Question: For `COc1ccc(/C=N/Nc2nnc(C)n2N)cc1OC`, which Potency is on record?
Answer: inconclusive: 28.2 µM [inhibitor, single point]

Question: For `Clc1ccccc1CN(Cc1ccccc1)c1ncnc2nc[nH]c12`, which Potency is on record?
Answer: inconclusive: 28.2 µM [inhibitor, partial curve, poor fit]

Question: For `Cc1ccc(NC(=S)N(CCN(C)C)Cc2cc3cc(C)ccc3[nH]c2=O)cc1`, which Potency is on record?
Answer: inconclusive: 35.5 µM [inhibitor, single point]

Question: With `Cc1cccc(C(=O)Nc2sc3c(c2C(=O)O)CCCC3)c1` as the compound, how does the Potency read?
Answer: active: 2.24 µM and active: 2 µM

Question: Which Potency does the source give for `COc1ccc(-n2c3c(cc(C(=O)Nc4cccc(C)n4)c2=O)C(=O)CC(C)(C)C3)cc1` here?
Answer: inconclusive: 2.51 µM [activator, partial curve, poor fit]
